Experimental data from US10188718B2, “Vaccines against Streptococcus pneumoniae serotype 4” (MAX-PLANCK-GESELLSCHAFT ZUR FÖRDERUNG DER WISSENSCHAFTEN …, priority 2014, dated 2019).
“Also recorded” adds a separate entry of the source. At least one compound was matched to its structure with a doubt left.

Legend:
[1] = system: human reference serum 007sp; experiment: Glycan array, antibody binding from human reference serum 007sp with CPS/CWPS competition
Method: Pyruvated SP4 tetrasaccharide 24* was dissolved at 10 mM in water and diluted to 100 μM and 50 μM in coupling buffer (50 mM sodium phosphate, pH 8.5). Each concentration was spotted in duplicates to CodeLink activated glass slides (Surmodics) alongside a number of related structures and native polysaccharides (see FIG. 4 for printing pattern) using a Scienion S3 microarray printer at 65% relative humidity. The slides were incubated in a humidity saturated chamber overnight. They were washed twice with water and quenched by incubation with 100 mM ethanolamine, 50 mM sodium phosphate pH 9 for one hour at room temperature. They were washed again twice, dried by centrifugation and stored at 4° C. until use.
Slides were blocked by incubation with 1% BSA-PBS at room temperature, washed twice with PBS and dried by centrifugation. A 64 well incubation gasket was attached to the glass slides.
Sera (rabbit SP4 typing serum (SSI Diagnostica, Denmark) or human reference serum 007sp (Clin. Vaccine Immunol. 2011 18 (10), 1728)) were diluted in 1% BSA-PBS containing no competitors or native SP4 CPS (capsular polysaccharide) or CWPS (S. pneumoniae cell wall polysaccharide) as competitors. […] It was dried by centrifugation and the fluorescence was read out using s GenePix 4300a fluorescence reader.

rabbit SP4 typing serum = experiment: Glycan array, antibody binding from rabbit SP4 typing serum

Structure (SMILES): CC(=O)N[C@@H]1[C@H](O[C@@H]2[C@H](O)[C@H](C)O[C@@H](O[C@H]3[C@@H](O)[C@@H](CO)O[C@H](O[C@@H]4[C@@H]5O[C@](C)(C(=O)O)O[C@H]5[C@@H](OCCCCCN)O[C@@H]4CO)[C@@H]3NC(C)=O)[C@H]2NC(C)=O)O[C@H](CO)[C@@H](O)[C@@H]1O [compound 24*, (2S,3aR,4S,6R,7S,7aS)-7-(((2R,3R,4R,5R,6R)-3-acetamido-4-(((2S,3S,4S,5R,6S)-3-acetamido-4-(((2R,3S,4R,5S,6R)-3-acetamido-4,5-dihydroxy-6-(hydroxymethyl)tetrahydro-2H-pyran-2-yl)oxy)-5-hydroxy-6-methyltetrahydro-2H-pyran-2-yl)oxy)-5-hydroxy-6-(hydroxymethyl)tetrahydro-2H-pyran-2-yl)oxy)-4-((5-aminopentyl)oxy)-6-(hydroxymethyl)-2-methyltetrahydro-3aH-[1,3]dioxolo[4,5-c]pyran-2-carboxylic acid]
- inhibition (decline) of signal by native S. pneumoniae serotype 4 CPS ([1]; glycan array competition experiment, serum 007sp (FIG. 5, FIG. 6), 24* compared with 16*): can be inhibited far more efficiently; also recorded: much stronger
- effect of CWPS competition on signal strength ([1]; glycan array competition with S. pneumoniae cell wall polysaccharide (FIG. 5, FIG. 6)): no effect
- specific IgG signal in the rabbit typing serum (rabbit SP4 typing serum; no competitor, goat anti-rabbit IgG FITC): only observed
- IgG signal when performing CWPS competition (rabbit SP4 typing serum; rabbit typing serum, CWPS competitor): remained
- IgG signal when using native SP4 CPS as competitor (rabbit SP4 typing serum; rabbit typing serum, native SP4 CPS competitor): could no longer be seen
